Some of the results follow.
Key:
Experiment in all cases: log2 fold change, soluble protein after heating vs DMSO (PISA); higher = thermal stabilisation; K562 lysate, 10 uM; active = over 0.2 and 3.5 SD of the protein, either way, in both replicates (recomputed)
alvocidib = compound: CN1CC[C@H](c2c(O)cc(O)c3c(=O)cc(-c4ccccc4Cl)oc23)[C@H](O)C1 [alvocidib]
Summary of the method: (§1)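 Quantification was by TMTpro 16plex LC-MS/MS with equalised channel sums, applied to the supernatant after 21,000xg for 90 min. Samples were crude K562 extract at 1 mg/mL protein in PBS pH 7.4 with 1 mM MgCl2, treated with 10 μM compound for 30 min, heated for 3 min across 48°C-58°C, pooled and brought to 0.5% NP-40 at 4°C. Values are log-two fold changes in thermal stability relative to solvent controls, from duplicates.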

Chains of the proteins cited; added tags and fusions are not shown. Lines headed by an entry give the natural chain unless they say otherwise; changes in a name come on top.
UniProt Q13615: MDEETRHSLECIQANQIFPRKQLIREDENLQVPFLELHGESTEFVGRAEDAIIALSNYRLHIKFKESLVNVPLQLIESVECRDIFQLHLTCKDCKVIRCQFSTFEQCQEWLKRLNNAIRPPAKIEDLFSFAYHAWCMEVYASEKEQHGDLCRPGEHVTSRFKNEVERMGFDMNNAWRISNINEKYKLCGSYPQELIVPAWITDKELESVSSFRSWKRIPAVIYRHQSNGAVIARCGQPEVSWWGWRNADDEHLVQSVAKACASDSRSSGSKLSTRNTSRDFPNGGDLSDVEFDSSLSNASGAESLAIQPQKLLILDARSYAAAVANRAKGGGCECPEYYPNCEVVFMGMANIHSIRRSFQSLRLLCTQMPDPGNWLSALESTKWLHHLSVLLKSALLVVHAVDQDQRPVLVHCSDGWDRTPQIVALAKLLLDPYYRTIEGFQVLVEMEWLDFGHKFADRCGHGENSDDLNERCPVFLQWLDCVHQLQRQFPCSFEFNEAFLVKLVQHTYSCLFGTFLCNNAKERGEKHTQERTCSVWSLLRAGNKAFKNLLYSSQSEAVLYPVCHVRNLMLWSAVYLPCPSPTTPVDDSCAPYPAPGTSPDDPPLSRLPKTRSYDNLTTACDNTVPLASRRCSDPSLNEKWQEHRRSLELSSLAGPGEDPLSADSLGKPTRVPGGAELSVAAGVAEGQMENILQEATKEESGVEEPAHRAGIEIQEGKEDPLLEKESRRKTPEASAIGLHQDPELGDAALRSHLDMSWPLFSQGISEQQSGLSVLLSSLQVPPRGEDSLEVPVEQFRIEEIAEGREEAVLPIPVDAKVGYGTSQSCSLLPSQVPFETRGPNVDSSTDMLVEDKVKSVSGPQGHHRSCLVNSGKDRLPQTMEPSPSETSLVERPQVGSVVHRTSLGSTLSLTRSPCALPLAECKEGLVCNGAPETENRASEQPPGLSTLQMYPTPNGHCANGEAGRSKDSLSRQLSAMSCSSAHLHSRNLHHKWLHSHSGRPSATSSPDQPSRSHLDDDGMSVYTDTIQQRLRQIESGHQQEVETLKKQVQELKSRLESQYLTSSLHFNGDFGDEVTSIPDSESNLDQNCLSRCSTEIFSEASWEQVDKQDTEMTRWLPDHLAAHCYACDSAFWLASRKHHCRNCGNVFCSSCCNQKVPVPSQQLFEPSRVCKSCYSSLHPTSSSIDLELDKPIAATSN
UniProt O75431: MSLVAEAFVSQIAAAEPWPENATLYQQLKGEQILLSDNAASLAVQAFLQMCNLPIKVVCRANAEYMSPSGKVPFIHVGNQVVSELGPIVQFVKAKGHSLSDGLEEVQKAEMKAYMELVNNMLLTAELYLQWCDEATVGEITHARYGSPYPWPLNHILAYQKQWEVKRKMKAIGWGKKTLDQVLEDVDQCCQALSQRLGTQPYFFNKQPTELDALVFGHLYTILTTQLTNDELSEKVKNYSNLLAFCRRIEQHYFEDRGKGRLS
UniProt P00403, whole entry, looked up: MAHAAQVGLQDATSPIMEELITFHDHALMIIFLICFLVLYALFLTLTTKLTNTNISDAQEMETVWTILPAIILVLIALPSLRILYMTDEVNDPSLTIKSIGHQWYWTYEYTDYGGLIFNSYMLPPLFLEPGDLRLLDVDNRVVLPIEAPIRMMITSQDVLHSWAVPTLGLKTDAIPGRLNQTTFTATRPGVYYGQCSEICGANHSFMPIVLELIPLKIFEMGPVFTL
UniProt Q9Y2Z2: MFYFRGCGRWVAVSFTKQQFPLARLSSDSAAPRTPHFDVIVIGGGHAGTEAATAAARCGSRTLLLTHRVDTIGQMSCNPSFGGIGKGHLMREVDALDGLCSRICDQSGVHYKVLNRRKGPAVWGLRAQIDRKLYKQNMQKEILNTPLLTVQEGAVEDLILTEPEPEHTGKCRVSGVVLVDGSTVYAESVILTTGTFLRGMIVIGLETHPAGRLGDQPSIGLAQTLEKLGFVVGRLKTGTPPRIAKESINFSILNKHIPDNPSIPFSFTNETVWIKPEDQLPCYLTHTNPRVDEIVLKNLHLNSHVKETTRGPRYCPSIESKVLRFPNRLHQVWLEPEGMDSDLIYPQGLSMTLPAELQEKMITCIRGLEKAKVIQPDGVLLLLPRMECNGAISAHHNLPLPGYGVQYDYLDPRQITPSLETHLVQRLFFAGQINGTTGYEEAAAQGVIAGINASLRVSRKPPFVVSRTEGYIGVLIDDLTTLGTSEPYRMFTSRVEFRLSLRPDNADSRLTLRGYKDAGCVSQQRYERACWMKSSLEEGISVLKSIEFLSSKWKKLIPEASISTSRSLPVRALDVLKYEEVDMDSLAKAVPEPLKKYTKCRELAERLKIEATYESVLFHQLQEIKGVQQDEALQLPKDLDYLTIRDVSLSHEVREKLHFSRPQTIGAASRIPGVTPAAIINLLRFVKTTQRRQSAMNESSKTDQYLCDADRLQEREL
UniProt Q969V6: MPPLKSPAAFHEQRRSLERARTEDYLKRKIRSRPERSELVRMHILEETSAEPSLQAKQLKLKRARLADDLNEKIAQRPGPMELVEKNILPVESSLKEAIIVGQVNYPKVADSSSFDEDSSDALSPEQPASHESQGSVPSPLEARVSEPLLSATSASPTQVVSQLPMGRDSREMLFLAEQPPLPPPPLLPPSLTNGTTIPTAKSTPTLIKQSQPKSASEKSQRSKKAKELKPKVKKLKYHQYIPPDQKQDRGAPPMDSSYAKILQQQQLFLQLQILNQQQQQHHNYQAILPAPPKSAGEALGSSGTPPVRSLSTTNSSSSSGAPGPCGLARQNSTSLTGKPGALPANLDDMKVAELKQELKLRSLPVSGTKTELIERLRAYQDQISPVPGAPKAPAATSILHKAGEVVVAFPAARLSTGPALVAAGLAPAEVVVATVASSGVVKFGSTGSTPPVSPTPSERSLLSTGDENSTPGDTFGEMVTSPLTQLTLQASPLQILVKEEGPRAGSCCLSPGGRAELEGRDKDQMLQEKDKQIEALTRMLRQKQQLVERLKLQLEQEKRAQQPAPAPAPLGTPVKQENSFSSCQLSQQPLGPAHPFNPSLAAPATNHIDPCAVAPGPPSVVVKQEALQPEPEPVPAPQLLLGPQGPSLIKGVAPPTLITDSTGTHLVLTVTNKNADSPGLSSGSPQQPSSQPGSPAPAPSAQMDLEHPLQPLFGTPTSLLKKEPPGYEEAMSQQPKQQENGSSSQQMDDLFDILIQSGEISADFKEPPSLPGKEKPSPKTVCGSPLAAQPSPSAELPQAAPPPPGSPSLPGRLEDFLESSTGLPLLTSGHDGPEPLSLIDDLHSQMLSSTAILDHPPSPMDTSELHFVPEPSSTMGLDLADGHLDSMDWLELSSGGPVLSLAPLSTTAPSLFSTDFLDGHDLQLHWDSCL
UniProt Q15800: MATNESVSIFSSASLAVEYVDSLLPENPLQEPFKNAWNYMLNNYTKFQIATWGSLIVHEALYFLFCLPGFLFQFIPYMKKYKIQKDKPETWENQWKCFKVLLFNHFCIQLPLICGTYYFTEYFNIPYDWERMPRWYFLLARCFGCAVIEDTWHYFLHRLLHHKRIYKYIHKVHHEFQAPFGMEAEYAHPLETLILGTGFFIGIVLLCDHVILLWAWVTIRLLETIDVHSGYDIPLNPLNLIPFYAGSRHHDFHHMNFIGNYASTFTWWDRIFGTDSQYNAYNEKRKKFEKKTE
UniProt P20585: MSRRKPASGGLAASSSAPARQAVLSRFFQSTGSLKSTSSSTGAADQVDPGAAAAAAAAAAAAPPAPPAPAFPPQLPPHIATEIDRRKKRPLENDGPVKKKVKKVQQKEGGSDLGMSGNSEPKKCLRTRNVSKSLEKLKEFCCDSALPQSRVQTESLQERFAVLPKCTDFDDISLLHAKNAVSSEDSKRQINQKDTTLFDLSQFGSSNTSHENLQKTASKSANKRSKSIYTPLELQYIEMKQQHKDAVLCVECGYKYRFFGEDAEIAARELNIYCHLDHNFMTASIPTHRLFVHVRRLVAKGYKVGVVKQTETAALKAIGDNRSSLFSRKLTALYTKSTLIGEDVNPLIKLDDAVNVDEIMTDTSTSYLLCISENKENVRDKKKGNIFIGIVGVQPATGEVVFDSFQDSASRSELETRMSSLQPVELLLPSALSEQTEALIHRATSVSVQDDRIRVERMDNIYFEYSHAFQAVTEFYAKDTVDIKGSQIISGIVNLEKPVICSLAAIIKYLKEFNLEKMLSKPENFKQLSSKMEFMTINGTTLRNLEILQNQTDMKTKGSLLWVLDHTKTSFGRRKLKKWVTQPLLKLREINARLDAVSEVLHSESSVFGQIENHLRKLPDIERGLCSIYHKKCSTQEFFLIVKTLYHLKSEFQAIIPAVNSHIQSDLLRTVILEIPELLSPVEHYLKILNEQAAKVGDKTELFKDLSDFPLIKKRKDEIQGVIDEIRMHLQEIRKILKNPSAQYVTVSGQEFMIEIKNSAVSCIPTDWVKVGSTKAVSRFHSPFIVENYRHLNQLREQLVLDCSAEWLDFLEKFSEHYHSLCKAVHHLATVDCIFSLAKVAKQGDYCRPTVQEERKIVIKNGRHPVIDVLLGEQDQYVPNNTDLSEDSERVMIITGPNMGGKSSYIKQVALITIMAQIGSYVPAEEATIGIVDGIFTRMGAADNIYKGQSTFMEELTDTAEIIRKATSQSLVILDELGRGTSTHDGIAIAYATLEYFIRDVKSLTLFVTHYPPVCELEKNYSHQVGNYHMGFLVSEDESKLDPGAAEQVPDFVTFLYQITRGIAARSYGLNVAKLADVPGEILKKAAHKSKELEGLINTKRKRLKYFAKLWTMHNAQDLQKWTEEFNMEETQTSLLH
UniProt Q9UDX5: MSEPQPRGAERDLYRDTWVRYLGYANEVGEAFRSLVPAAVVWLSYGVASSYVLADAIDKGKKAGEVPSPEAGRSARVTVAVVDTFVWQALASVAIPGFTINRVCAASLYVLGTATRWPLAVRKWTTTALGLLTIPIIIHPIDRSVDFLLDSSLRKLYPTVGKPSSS
UniProt P58546, whole entry, looked up: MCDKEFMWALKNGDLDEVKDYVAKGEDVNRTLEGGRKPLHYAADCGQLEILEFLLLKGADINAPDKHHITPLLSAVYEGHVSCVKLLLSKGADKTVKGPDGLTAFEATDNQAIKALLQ

Tubastatin A = compound: CN1CCc2c(c3ccccc3n2Cc2ccc(C(=O)NO)cc2)C1 [Tubastatin A]
Summary of the method: as §1

[1] = compound: CNC(=O)C1=CC=CC=C1NC2=NC(=NC=C2Cl)NC3=C(C=C(C=C3)N4CCOCC4)OC
Summary of the method: as §1

defactinib = compound: CNC(=O)c1ccc(Nc2ncc(C(F)(F)F)c(NCc3nccnc3N(C)S(C)(=O)=O)n2)cc1 [defactinib]
Summary of the method: as §1

[2] = compound: CNc1nc(-c2ccc3c(N)n[nH]c3c2)cc(N2C[C@@H](C(=O)NC3CCCCC3)CC[C@H]2C)n1
Summary of the method: as §1

encorafenib = compound: COC(=O)N[C@@H](C)CNc1nccc(-c2cn(C(C)C)nc2-c2cc(Cl)cc(NS(C)(=O)=O)c2F)n1 [encorafenib]
Summary of the method: as §1

[3] = compound: COC(=O)[C@H](CCSC)NC(=O)C1=C(C=C(C=C1)NC[C@H](CS)N)C2=CC=CC=C2
Summary of the method: as §1

alisertib = compound: COc1cc(Nc2ncc3c(n2)-c2ccc(Cl)cc2C(c2c(F)cccc2OC)=NC3)ccc1C(=O)O [alisertib]
Summary of the method: as §1

[4] = compound: COc1cc2nc(-c3cc(F)ccc3O)nc(N[C@@H]3CNC[C@H]3C(C)(C)O)c2cc1OC
Summary of the method: as §1

gefitinib = compound: COc1cc2ncnc(Nc3ccc(F)c(Cl)c3)c2cc1OCCCN1CCOCC1 [gefitinib]
Summary of the method: as §1

lapatinib = compound: CS(=O)(=O)CCNCc1ccc(-c2ccc3ncnc(Nc4ccc(OCc5cccc(F)c5)c(Cl)c4)c3c2)o1 [lapatinib]
Summary of the method: as §1

pictilisib = compound: CS(=O)(=O)N1CCN(Cc2cc3nc(-c4cccc5[nH]ncc45)nc(N4CCOCC4)c3s2)CC1 [pictilisib]
Summary of the method: as §1

crizotinib = compound: C[C@@H](Oc1cc(-c2cnn(C3CCNCC3)c2)cnc1N)c1c(Cl)ccc(F)c1Cl [crizotinib]
Summary of the method: as §1

[5] = compound: C[C@H](C1=CC=C(C=C1)C(=O)NC2=C3C=CNC3=NC=C2)N
Summary of the method: as §1

duvelisib = compound: C[C@H](Nc1ncnc2nc[nH]c12)c1cc2cccc(Cl)c2c(=O)n1-c1ccccc1 [duvelisib]
Summary of the method: as §1

gandotinib = compound: Cc1cc(Nc2cc(CN3CCOCC3)c3nc(C)c(Cc4ccc(Cl)cc4F)n3n2)n[nH]1 [gandotinib]
Summary of the method: as §1

tozasertib = compound: Cc1cc(Nc2cc(N3CCN(C)CC3)nc(Sc3ccc(NC(=O)C4CC4)cc3)n2)n[nH]1 [tozasertib]
Summary of the method: as §1

doramapimod = compound: Cc1ccc(-n2nc(C(C)(C)C)cc2NC(=O)Nc2ccc(OCCN3CCOCC3)c3ccccc23)cc1 [doramapimod]
Summary of the method: as §1

bafetinib = compound: Cc1ccc(NC(=O)c2ccc(CN3CC[C@H](N(C)C)C3)c(C(F)(F)F)c2)cc1Nc1nccc(-c2cncnc2)n1 [bafetinib]
Summary of the method: as §1

[6] = compound: Cc1cccc(CC(=O)N2CCc3c2ccc(-c2cn(C)c4ncnc(N)c24)c3F)n1
Summary of the method: as §1

Measured: log2 fold change

MRPS16 (UniProt Q9Y3D3)
inactive: alvocidib 0.039 | Tubastatin A -0.068 | [1] 0.015 | defactinib -0.034 | [2] 0.057 | encorafenib 0.037 | [3] -0.117 | alisertib -0.014 | [4] -0.042 | gefitinib -0.008 | lapatinib -0.054 | pictilisib -0.022 | crizotinib -0.014 | [5] 0.129 | duvelisib -0.094 | gandotinib -0.066 | tozasertib 0.02 | doramapimod -0.018 | bafetinib -0.034 | [6] -0.02

MRPL3 (UniProt P09001)
inactive: alvocidib 0 | Tubastatin A -0.059 | [1] -0.003 | defactinib 0.015 | [2] 0.099 | encorafenib 0.036 | [3] 0.05 | alisertib 0.057 | [4] -0.025 | gefitinib -0.028 | lapatinib 0.021 | pictilisib 0.048 | crizotinib -0.006 | [5] -0.102 | duvelisib 0.076 | gandotinib 0.006 | tozasertib 0.046 | doramapimod -0.038 | bafetinib -0.025 | [6] 0.025

MRPS18C (UniProt Q9Y3D5)
inactive: alvocidib 0.027 | Tubastatin A -0.002 | [1] 0.081 | defactinib -0.23 | [2] 0.008 | encorafenib 0.012 | [3] -0.089 | alisertib 0.081 | [4] -0.056 | gefitinib -0.045 | lapatinib 0.072 | pictilisib -0.043 | crizotinib -0.092 | [5] 0.01 | duvelisib 0.002 | gandotinib 0.035 | tozasertib 0.031 | doramapimod 0.046 | bafetinib -0.023 | [6] -0.059

MUC1, A0A087WWM1
inactive: alvocidib -0.005 | Tubastatin A -0.019 | [1] -0.009 | defactinib 0.004 | [2] -0.046 | encorafenib -0.039 | [3] 0.008 | alisertib -0.05 | [4] 0.04 | gefitinib -0.01 | lapatinib -0.009 | pictilisib 0.054 | crizotinib 0.077 | [5] -0.098 | duvelisib -0.045 | gandotinib 0.007 | tozasertib 0.011 | doramapimod 0.058 | bafetinib -0.015 | [6] 0.091

MTMR3 (UniProt Q13615)
inactive: alvocidib 0.056 | Tubastatin A -0.04 | [1] 0.06 | defactinib -0.038 | [2] -0.009 | encorafenib 0.073 | [3] -0.033 | alisertib -0.01 | [4] -0.027 | gefitinib 0.019 | lapatinib -0.062 | pictilisib 0.009 | crizotinib -0.093 | [5] -0.037 | duvelisib -0.03 | gandotinib 0.016 | tozasertib 0.043 | doramapimod -0.077 | bafetinib -0.007 | [6] 0.037

Copied from above (4 entries):
MRPS16 (UniProt Q9Y3D3)
inactive: alvocidib 0.039 | Tubastatin A -0.068 | [1] 0.015 | defactinib -0.034 | [2] 0.057 | encorafenib 0.037 | [3] -0.117 | alisertib -0.014 | [4] -0.042 | gefitinib -0.008 | lapatinib -0.054 | pictilisib -0.022 | crizotinib -0.014 | [5] 0.129 | duvelisib -0.094 | gandotinib -0.066 | tozasertib 0.02 | doramapimod -0.018 | bafetinib -0.034 | [6] -0.02

MRPL3 (UniProt P09001)
inactive: alvocidib 0 | Tubastatin A -0.059 | [1] -0.003 | defactinib 0.015 | [2] 0.099 | encorafenib 0.036 | [3] 0.05 | alisertib 0.057 | [4] -0.025 | gefitinib -0.028 | lapatinib 0.021 | pictilisib 0.048 | crizotinib -0.006 | [5] -0.102 | duvelisib 0.076 | gandotinib 0.006 | tozasertib 0.046 | doramapimod -0.038 | bafetinib -0.025 | [6] 0.025

MRPS18C (UniProt Q9Y3D5)
inactive: alvocidib 0.027 | Tubastatin A -0.002 | [1] 0.081 | defactinib -0.23 | [2] 0.008 | encorafenib 0.012 | [3] -0.089 | alisertib 0.081 | [4] -0.056 | gefitinib -0.045 | lapatinib 0.072 | pictilisib -0.043 | crizotinib -0.092 | [5] 0.01 | duvelisib 0.002 | gandotinib 0.035 | tozasertib 0.031 | doramapimod 0.046 | bafetinib -0.023 | [6] -0.059

MUC1, A0A087WWM1
inactive: alvocidib -0.005 | Tubastatin A -0.019 | [1] -0.009 | defactinib 0.004 | [2] -0.046 | encorafenib -0.039 | [3] 0.008 | alisertib -0.05 | [4] 0.04 | gefitinib -0.01 | lapatinib -0.009 | pictilisib 0.054 | crizotinib 0.077 | [5] -0.098 | duvelisib -0.045 | gandotinib 0.007 | tozasertib 0.011 | doramapimod 0.058 | bafetinib -0.015 | [6] 0.091

(continued)

MTX2 (UniProt O75431)
inactive: alvocidib 0.059 | Tubastatin A -0.016 | [1] 0.015 | defactinib 0.008 | [2] 0.049 | encorafenib -0.012 | [3] -0.047 | alisertib 0.007 | [4] -0.016 | gefitinib -0.02 | lapatinib -0.006 | pictilisib -0.025 | crizotinib -0.036 | [5] 0.062 | duvelisib -0.037 | gandotinib -0.068 | tozasertib -0.024 | doramapimod -0.032 | bafetinib -0.05 | [6] -0.026

MT-CO2 (UniProt P00403)
inactive: alvocidib 0.034 | Tubastatin A 0.004 | [1] 0.026 | defactinib 0.032 | [2] 0.008 | encorafenib 0.07 | [3] -0.044 | alisertib 0.011 | [4] -0.033 | gefitinib -0.025 | lapatinib -0.114 | pictilisib -0.117 | crizotinib -0.02 | [5] 0.053 | duvelisib -0.026 | gandotinib -0.075 | tozasertib 0.015 | doramapimod -0.018 | bafetinib 0.038 | [6] -0.02

MTO1 isoform 4 (UniProt Q9Y2Z2)
inactive: alvocidib -0.025 | Tubastatin A -0.086 | [1] -0.006 | defactinib 0.005 | [2] 0.059 | encorafenib -0.014 | [3] 0.098 | alisertib 0.195 | gefitinib -0.048 | pictilisib -0.009 | crizotinib -0.058 | [5] 0.006 | duvelisib 0.103 | gandotinib -0.041 | tozasertib 0.004 | doramapimod 0.094 | bafetinib 0.053 | [6] 0.095

MRTFA (UniProt Q969V6)
inactive: alvocidib 0.041 | Tubastatin A -0.017 | [1] 0.034 | defactinib 0.226 | [2] -0.045 | encorafenib 0.075 | [3] -0.088 | alisertib -0.029 | gefitinib -0.057 | pictilisib -0.008 | crizotinib -0.059 | [5] -0.032 | duvelisib -0.061 | gandotinib 0.02 | tozasertib 0.055 | doramapimod -0.007 | bafetinib -0.042 | [6] -0.007

MSMO1 (UniProt Q15800)
inactive: alvocidib -0.098 | Tubastatin A -0.03 | [1] 0.073 | defactinib -0.085 | [2] 0.015 | encorafenib 0.023 | [3] -0.053 | alisertib -0.099 | [4] 0.008 | gefitinib 0.025 | lapatinib 0.009 | pictilisib -0.017 | crizotinib -0.043 | [5] -0.041 | duvelisib 0.006 | gandotinib 0.065 | tozasertib -0.05 | doramapimod -0.008 | bafetinib -0.015 | [6] 0.097

MSH3 (UniProt P20585)
inactive: alvocidib 0.021 | Tubastatin A -0.004 | [1] 0.008 | defactinib 0.023 | [2] 0.057 | encorafenib 0.02 | [3] -0.013 | alisertib -0.027 | [4] 0.006 | gefitinib -0.012 | lapatinib -0.021 | pictilisib -0.005 | crizotinib -0.004 | [5] -0.018 | duvelisib -0.001 | gandotinib -0.019 | tozasertib 0.021 | doramapimod 0.019 | bafetinib -0.003 | [6] 0.028

MRPL46 (UniProt Q9H2W6)
inactive: alvocidib 0.125 | Tubastatin A -0.097 | [1] 0.28 | defactinib 0.051 | [2] 0.058 | encorafenib -0.032 | [3] 0 | alisertib 0.02 | [4] -0.045 | gefitinib 0.041 | lapatinib 0.019 | pictilisib 0.096 | crizotinib -0.011 | duvelisib 0.033 | gandotinib -0.09 | tozasertib 0.008 | doramapimod 0.024 | bafetinib 0.034 | [6] -0.073
active: [5] 0.452

MRPL37 (UniProt Q9BZE1)
inactive: alvocidib -0.032 | Tubastatin A -0.042 | [1] 0.006 | defactinib 0.046 | [2] -0.03 | encorafenib -0.001 | [3] 0.015 | alisertib 0.014 | [4] -0.025 | gefitinib 0.003 | lapatinib -0.031 | pictilisib -0.008 | crizotinib -0.093 | [5] -0.045 | duvelisib -0.019 | gandotinib 0.038 | tozasertib 0.004 | doramapimod 0.024 | bafetinib -0.031 | [6] 0.039

MTFP1 (UniProt Q9UDX5)
active: [5] -0.364
inactive: alvocidib -0.087 | Tubastatin A -0.006 | [1] 0.053 | defactinib 0.145 | [2] 0.007 | encorafenib -0.037 | [3] 0.102 | alisertib -0.032 | [4] 0.003 | gefitinib -0.011 | lapatinib 0.026 | pictilisib 0.017 | crizotinib 0.097 | duvelisib -0.01 | gandotinib 0.059 | tozasertib 0.006 | doramapimod -0.043 | bafetinib 0.01 | [6] 0.067

MTPN (UniProt P58546)
inactive: alvocidib 0.267 | Tubastatin A 0.081 | [1] 0.068 | defactinib 0.134 | [2] 0.014 | encorafenib -0.023 | [3] 0.014 | alisertib -0.008 | [4] -0.031 | gefitinib -0.142 | lapatinib 0.155 | pictilisib 0.042 | crizotinib 0.04 | [5] 0.238 | duvelisib -0.002 | gandotinib -0.198 | tozasertib 0.039 | doramapimod -0.05 | bafetinib -0.014 | [6] -0.237

MRPS2 (UniProt Q9Y399)
inactive: alvocidib 0.057 | Tubastatin A -0.093 | [1] -0.006 | defactinib 0.032 | [2] -0.165 | encorafenib -0.012 | [3] 0.01 | alisertib 0.01 | [4] -0.019 | gefitinib -0.048 | lapatinib 0.013 | crizotinib 0.022 | [5] 0.096 | duvelisib 0.015 | gandotinib -0.036 | tozasertib 0.097 | doramapimod 0.037 | [6] -0.017

— the supplement of paper PMC10849652
